# PMC7819943, “Rice protein-binding microarrays: a tool to detect cis-acting elements near promoter regions in rice”
# Chains of the proteins cited; added tags and fusions are not shown.
# UniProt Q0JBA9, entry or part of it: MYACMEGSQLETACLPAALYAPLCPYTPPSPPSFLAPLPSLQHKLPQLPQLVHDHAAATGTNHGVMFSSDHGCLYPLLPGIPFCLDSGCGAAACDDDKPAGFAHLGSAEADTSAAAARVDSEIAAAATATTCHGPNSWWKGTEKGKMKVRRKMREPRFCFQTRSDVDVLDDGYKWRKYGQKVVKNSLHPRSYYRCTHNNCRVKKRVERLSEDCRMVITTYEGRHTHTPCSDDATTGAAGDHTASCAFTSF
# This is one part of the list.
# Molecular target: OsWRKY34 (Oryza sativa, UniProt Q0JBA9 1-250)
# Experiment: protein-binding microarray (RPBM); PBS, 2% BSA, 51.3 ng/ul salmon testes DNA, 50 uM zinc acetate, 200 nM TF, 25 C, 1 h; high values mean tight binding
# Settings: protein: recombinant; tags: N-terminal polyhistidine and DsRed monomer fusion (pET32a); label: CyDye5-dUTP incorporated in the synthesized complementary strand; 3' TTTTT single-stranded linker to array surface; dsDNA, one strand shown
# Summary of the method: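 Polyhistidine-tagged DsRed fusions of transcription factors, joined at the N-terminus, were expressed in E. coli BL21-CodonPlus and isolated on Ni–NTA. They were incubated at 200 nM for 1 h at 25 °C on a custom Agilent array, double-stranded and BSA-blocked, in PBS with 2% BSA, salmon testes DNA and 50 µM zinc acetate. The binding signal is per-feature fluorescence intensity (arbitrary units) read on an Axon 4000B scanner after washing.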
row,Sequence,binding signal
1,AAAGTACACACAAGTCCTTCACTCATTAGTTTCCATTTCTCGGAGTCACCTAGTGCAG,8090 fluorescence intensity (a.u.)
2,CACTGTAGTTATGTGGTGCACTGGTCGGTTCCGCTGACCACGGAGTCACCTAGTGCAG,10400 fluorescence intensity (a.u.)
3,CAGGCCAGCTTCATATGCCTCCATCAAAATCGATTTATTTCGGAGTCACCTAGTGCAG,8630 fluorescence intensity (a.u.)
4,TTTGCTTTGTTTTTACTCTCTGATGATCTGATCGGTAGAACGGAGTCACCTAGTGCAG,8080 fluorescence intensity (a.u.)
5,CGCCGCATGCATCCTGTTCTATTCCTCGTGTGGGCCTTTACGGAGTCACCTAGTGCAG,9570 fluorescence intensity (a.u.)
6,CAGTTTTACATGTGGCTAATCATCCAAAGCTATAGTACTCCGGAGTCACCTAGTGCAG,9220 fluorescence intensity (a.u.)
7,GTGACCATGACTTCTATGATTCTCTTCCAAGCTCTTTCACCGGAGTCACCTAGTGCAG,10200 fluorescence intensity (a.u.)
8,TTCATTGGTCTGTTTGGTTCAAGTCCTGAGAAGGTGCTGGCGGAGTCACCTAGTGCAG,8730 fluorescence intensity (a.u.)
9,TGCTGTTTTGACCTCGTGGGGATTTTTATTTTCTTTTTCACGGAGTCACCTAGTGCAG,8020 fluorescence intensity (a.u.)
10,CTTTTGGCATCCTTGATTCAATTTCCCTTCCCTTTCTTTCCGGAGTCACCTAGTGCAG,10800 fluorescence intensity (a.u.)
11,TCTCATTTTCTCTATGTCATCAGTCTCCAAATTCTTTCAACGGAGTCACCTAGTGCAG,11300 fluorescence intensity (a.u.)
12,CCTACTCCTGCTGCTACCGCGCTCGCCGGCGACCTCCTCCCGGAGTCACCTAGTGCAG,8440 fluorescence intensity (a.u.)
13,CGTAGAAGATGTTGCTGTTGCCGCCGTTGACGAACTTGGTCGGAGTCACCTAGTGCAG,8810 fluorescence intensity (a.u.)
14,GGATGTGTATGTATTTATAGGGGTAAGTGAGAAGACTCATCGGAGTCACCTAGTGCAG,10300 fluorescence intensity (a.u.)
15,ACCTTCGTTTTGTAATATACGAGACATTTGACTTTCTTTTCGGAGTCACCTAGTGCAG,10000 fluorescence intensity (a.u.)
16,ATGGCATGGTCGATCCCCACTATGTAAGTGTATATATATACGGAGTCACCTAGTGCAG,8870 fluorescence intensity (a.u.)
17,CCTCTCTCTCTCTCTTCGCCCGCGACTCCATCCCCTCCCTCGGAGTCACCTAGTGCAG,8360 fluorescence intensity (a.u.)
18,AGATAATTACTCACTTACCATCAATATTTTCTAGAATTTTCGGAGTCACCTAGTGCAG,9230 fluorescence intensity (a.u.)
19,ACTCCGCTTTCACATAACCCTACTCCCTCCGTCCTCATAACGGAGTCACCTAGTGCAG,8240 fluorescence intensity (a.u.)
20,TTCCAAGTTGTATTGAGAAGTACCGTTGTTTGATTCTAGTCGGAGTCACCTAGTGCAG,9870 fluorescence intensity (a.u.)
21,AGACGAACAGTCAAATATGTGCTAAAAAGTCAACGGTGTCCGGAGTCACCTAGTGCAG,17500 fluorescence intensity (a.u.)
22,GCACCGACCGCCTCCGCGACCTCCACGCCTTCGACGACACCGGAGTCACCTAGTGCAG,10300 fluorescence intensity (a.u.)
23,ACGCGGGGATGGATGATGGTGGTGGCGGCGAGGGGATGATCGGAGTCACCTAGTGCAG,9170 fluorescence intensity (a.u.)
24,ATCGAGCCCTTCCCCACCACATCTCTCGCCGCACCGCATCCGGAGTCACCTAGTGCAG,8500 fluorescence intensity (a.u.)
25,ACAGTCATGTGTATGGTCTAGTGTTGTCGTAATTAAAACCCGGAGTCACCTAGTGCAG,8650 fluorescence intensity (a.u.)
26,ATCATGCGCCCCTCGATGCAACCTTGAAAAGCCATCTCAACGGAGTCACCTAGTGCAG,8220 fluorescence intensity (a.u.)
27,AACCTTTTTTAAACATGTTTGACCCGTTCGTCTTATTTAACGGAGTCACCTAGTGCAG,9330 fluorescence intensity (a.u.)

# Given with tabs: entries from further up
row	Sequence	binding signal
2	CACTGTAGTTATGTGGTGCACTGGTCGGTTCCGCTGACCACGGAGTCACCTAGTGCAG	10400 fluorescence intensity (a.u.)
3	CAGGCCAGCTTCATATGCCTCCATCAAAATCGATTTATTTCGGAGTCACCTAGTGCAG	8630 fluorescence intensity (a.u.)
4	TTTGCTTTGTTTTTACTCTCTGATGATCTGATCGGTAGAACGGAGTCACCTAGTGCAG	8080 fluorescence intensity (a.u.)

# Remaining list, next part:

row,Sequence,binding signal
1,ATACACACACTGTCACACTGTCTCTGCATTACTCACAGTCCGGAGTCACCTAGTGCAG,11900 fluorescence intensity (a.u.)
2,ACCCTCGTCGCCGCCAACCACCATCCAACCCATCCACCAACGGAGTCACCTAGTGCAG,10800 fluorescence intensity (a.u.)
3,CGTGCCGCCGCCGCCGCCGCCATCCTCCGGCAACAACGGCCGGAGTCACCTAGTGCAG,9650 fluorescence intensity (a.u.)
4,CATTGTTACACTTTTCTGTTTGTTTGTTAATGTGGATCAACGGAGTCACCTAGTGCAG,10300 fluorescence intensity (a.u.)
5,TATTGGGTCTACTCCTTACCTGCTACAGTTAGTTTGTCTTCGGAGTCACCTAGTGCAG,12600 fluorescence intensity (a.u.)
6,CAAGCCCTGCAGGCTGCAGATTCTGTTTTCCACTTGGCGCCGGAGTCACCTAGTGCAG,8190 fluorescence intensity (a.u.)
7,TTGTTTGCACCGGTTTTGACAGTTCAGGGATCGGTTGTATCGGAGTCACCTAGTGCAG,8200 fluorescence intensity (a.u.)
8,CAAGTTTGACGCGCACCGGCACCGCCCCTGTACCGAAATTCGGAGTCACCTAGTGCAG,8030 fluorescence intensity (a.u.)
9,TGTAGTATATTAGTATCTTCTTTGTGCTGTGTTGTTTCTCCGGAGTCACCTAGTGCAG,9510 fluorescence intensity (a.u.)
10,ACCGTGTAATTTCCTCATTTGCCTTTCAGTTTTTCCCTTTCGGAGTCACCTAGTGCAG,9060 fluorescence intensity (a.u.)
11,TGACTCAGTTTGTGATATTCTCACCAACAGCCTACTCAGTCGGAGTCACCTAGTGCAG,8050 fluorescence intensity (a.u.)
12,GAACGCCGTTCTGTGGTCTCACATTGGTCATTGGCCGTTCCGGAGTCACCTAGTGCAG,8900 fluorescence intensity (a.u.)
13,TGTACTTCAATACATATCTTCAGTTTTGTTCTTTGTGATACGGAGTCACCTAGTGCAG,9970 fluorescence intensity (a.u.)
14,ATGTCCCTAATTACTGCGTTTTCCATTTTGCTGTTTTTTACGGAGTCACCTAGTGCAG,16500 fluorescence intensity (a.u.)
15,TCTGGTTATTGCACACGAAGTTACGTTTTTGCCCTTCTACCGGAGTCACCTAGTGCAG,8090 fluorescence intensity (a.u.)
16,TTAGCATAATTGGTTGGTTGGGTACTTTGGGTGTAATCATCGGAGTCACCTAGTGCAG,13800 fluorescence intensity (a.u.)
17,TGAACTAACGCCATCAGATGAGTCATCCGTCAACCAGTATCGGAGTCACCTAGTGCAG,8220 fluorescence intensity (a.u.)
18,ATCCATAATTAACCTATGTGATGCTACAGTAAATATTTGTCGGAGTCACCTAGTGCAG,8040 fluorescence intensity (a.u.)
19,TTATTAATCCACGTGTCTCTCCATCGTACATGTTGACCACCGGAGTCACCTAGTGCAG,9700 fluorescence intensity (a.u.)
20,GTGCTGTTTGTGATGTTTGTCTGTATGTGCTCCGTCTGTTCGGAGTCACCTAGTGCAG,11600 fluorescence intensity (a.u.)
21,ACTCTTTTTTTCTTTTTTTTTCTCATTAATATGAGAATTTCGGAGTCACCTAGTGCAG,8660 fluorescence intensity (a.u.)
22,CAGGTGCTACCTCCGCCGCGTCGCACTCGCGCTGCCGTCCCGGAGTCACCTAGTGCAG,8780 fluorescence intensity (a.u.)
23,TTTCGATTGATTTTGCCTCCTGAAGCGTTGTCTAGCTTTTCGGAGTCACCTAGTGCAG,8180 fluorescence intensity (a.u.)
24,TGACTTCTTCCTTCTAATGCTCTCTCTTCTTCAACCTCTGCGGAGTCACCTAGTGCAG,8080 fluorescence intensity (a.u.)
25,CGTGTGGTACCTGGCTAGAAACGCGTCCACCCCGTCCACGCGGAGTCACCTAGTGCAG,8040 fluorescence intensity (a.u.)
26,AGCCGCACTCCTCGAGTCCACCACTCCGCCGCGCACCACTCGGAGTCACCTAGTGCAG,8200 fluorescence intensity (a.u.)
27,GGGTATTCCTTTGTGCGTGTATATAGTCCTTAGTTAATTTCGGAGTCACCTAGTGCAG,15400 fluorescence intensity (a.u.)
